Experimental data published in publication PMC7819943, “Rice protein-binding microarrays: a tool to detect cis-acting elements near promoter regions in rice”.
The list shows a part of the results.

target: T1, OsSMF1 (Oryza sativa, UniProt Q6ZLB0 1-436); assay: protein-binding microarray (RPBM); PBS, 2% BSA, 51.3 ng/ul salmon testes DNA, 50 uM zinc acetate, 200 nM TF, 25 C, 1 h; high values mean tight binding; settings: protein: recombinant; tags: N-terminal polyhistidine and DsRed monomer fusion (pET32a); chain copies: 2; label: CyDye5-dUTP incorporated in the synthesized complementary strand; 3' TTTTT single-stranded linker to array surface; dsDNA, one strand shown
T1 sequence: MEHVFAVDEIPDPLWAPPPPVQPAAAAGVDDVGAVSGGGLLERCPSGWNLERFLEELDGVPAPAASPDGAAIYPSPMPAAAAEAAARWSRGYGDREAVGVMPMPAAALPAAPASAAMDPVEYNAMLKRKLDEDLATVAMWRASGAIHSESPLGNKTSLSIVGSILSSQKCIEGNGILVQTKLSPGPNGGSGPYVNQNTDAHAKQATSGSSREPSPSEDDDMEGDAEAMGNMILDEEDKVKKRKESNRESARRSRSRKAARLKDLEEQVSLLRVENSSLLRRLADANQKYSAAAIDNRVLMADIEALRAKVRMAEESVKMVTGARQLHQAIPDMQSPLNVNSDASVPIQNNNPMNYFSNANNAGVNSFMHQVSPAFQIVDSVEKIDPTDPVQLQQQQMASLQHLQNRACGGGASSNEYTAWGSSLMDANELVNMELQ
In short: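 An Axon 4000B scanner gave the binding signal as per-feature fluorescence intensity in arbitrary units. This followed washing of a custom Agilent array that had been incubated for 1 h at 25 °C with 200 nM protein in PBS, 2% BSA, salmon testes DNA and 50 µM zinc acetate. The proteins were transcription factors fused at the N-terminus to polyhistidine and DsRed, expressed in E. coli BL21-CodonPlus and purified on Ni–NTA.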

Sequence	binding signal
CATCAGCAGCAGCAAGCAGCTAATCGCGCACGTACGCACACGGAGTCACCTAGTGCAG	3970 fluorescence intensity (a.u.)
TATAGCTCGCAGTTGGTCGCACGTCAGCAAAACTAGCGTACGGAGTCACCTAGTGCAG	15300 fluorescence intensity (a.u.)
AAGGCGCGATGTGTATATGACAAATAGGACCAGAAATTAACGGAGTCACCTAGTGCAG	8680 fluorescence intensity (a.u.)
ATTCAGTTGGTTTGGGGATTTAGATGTGGGCTCCTTCTTTCGGAGTCACCTAGTGCAG	3510 fluorescence intensity (a.u.)
CGCATACAGCACAAGTGGGTAAAGACTGATCAGTTTGGGACGGAGTCACCTAGTGCAG	3280 fluorescence intensity (a.u.)
ACGTCCATGATGTACTCCACGCGCCGCTCTTTCTCCGTCACGGAGTCACCTAGTGCAG	3190 fluorescence intensity (a.u.)
TGAGCATGTGTTTGCGAAAGTTTTCCCTCTACCACGCAAGCGGAGTCACCTAGTGCAG	3280 fluorescence intensity (a.u.)
AAAGGGAGGAATTTGGATATTTAAAATTTGGAAAGGGAACCGGAGTCACCTAGTGCAG	13500 fluorescence intensity (a.u.)
CTTGACATCCTCGTGCGAGAGCTCGCCCGCCGCTCCGCTCCGGAGTCACCTAGTGCAG	4280 fluorescence intensity (a.u.)
GACGCAACTTCCCACGTCTTCTCTTCTCTCCTCCTCCGCACGGAGTCACCTAGTGCAG	12300 fluorescence intensity (a.u.)
CTTAAGCATTACACACGTACGTCAAGAATGCAACCTGATCCGGAGTCACCTAGTGCAG	4580 fluorescence intensity (a.u.)
GACGTCGCGGGAACCACGCACGCCGCCCTCTACTCGTCGGCGGAGTCACCTAGTGCAG	3770 fluorescence intensity (a.u.)
TCTTCATACTTTGATGTCAAGCTGTAATGTTCTCAATTGGCGGAGTCACCTAGTGCAG	3410 fluorescence intensity (a.u.)
TGAGCGCGTCGTTCTCGATGTAGTCGTAGCACCCGACGCTCGGAGTCACCTAGTGCAG	31700 fluorescence intensity (a.u.)
CCTTTTCCCTGCTGTGCATCTTTTGGATAGTGGTGGTGGGCGGAGTCACCTAGTGCAG	3680 fluorescence intensity (a.u.)
ATGTGCCCCGCGACATATCTAGTGATAGATCATGTGTGTTCGGAGTCACCTAGTGCAG	3420 fluorescence intensity (a.u.)
CAGCAAGTCTGCGGGATCGCGTGGTGCCACGTGGCCGGCACGGAGTCACCTAGTGCAG	36500 fluorescence intensity (a.u.)
TTGCCGCCGCCAGCGAGGCCGCCGGTGATGGTAGTGCTGGCGGAGTCACCTAGTGCAG	3690 fluorescence intensity (a.u.)
CCTTAGCTGCTGTGTCAGATTGCTTTGGTCGCTTGGTGCGCGGAGTCACCTAGTGCAG	6310 fluorescence intensity (a.u.)
AGCACTTGCACTTGCACACACACATGACACATCATACTTGCGGAGTCACCTAGTGCAG	9470 fluorescence intensity (a.u.)
GGCGGTTTTGGAAACCCTGACTATATCTCATAGAGCTTATCGGAGTCACCTAGTGCAG	3740 fluorescence intensity (a.u.)
GGGAGCTCTGTGCGTCGTCAGCTCTCCAGCCCGGGACAGTCGGAGTCACCTAGTGCAG	6060 fluorescence intensity (a.u.)
AGACATCTTTGCCGTGATACGTCAGTCCAGACAGGCAATGCGGAGTCACCTAGTGCAG	3780 fluorescence intensity (a.u.)
TTTTGTTTGACTCCTGATCGTGTAGGCTGACAAGGACATCCGGAGTCACCTAGTGCAG	3160 fluorescence intensity (a.u.)
AACGGGCGATCTGTCTTGGTCATGACGCCACCAAAGGAGCCGGAGTCACCTAGTGCAG	4250 fluorescence intensity (a.u.)
GGAGTGTGCGGCGGCGCAAGAGAAGTCGTCTCCTCCTCCGCGGAGTCACCTAGTGCAG	3700 fluorescence intensity (a.u.)
GTCCATGCCACACACGTCGCGTCCCATGTCGTCATGCCTCCGGAGTCACCTAGTGCAG	5610 fluorescence intensity (a.u.)

For convenience, some entries already given.
Sequence	binding signal
CTTGACATCCTCGTGCGAGAGCTCGCCCGCCGCTCCGCTCCGGAGTCACCTAGTGCAG	4280 fluorescence intensity (a.u.)
GACGCAACTTCCCACGTCTTCTCTTCTCTCCTCCTCCGCACGGAGTCACCTAGTGCAG	12300 fluorescence intensity (a.u.)
CTTAAGCATTACACACGTACGTCAAGAATGCAACCTGATCCGGAGTCACCTAGTGCAG	4580 fluorescence intensity (a.u.)
GACGTCGCGGGAACCACGCACGCCGCCCTCTACTCGTCGGCGGAGTCACCTAGTGCAG	3770 fluorescence intensity (a.u.)
TCTTCATACTTTGATGTCAAGCTGTAATGTTCTCAATTGGCGGAGTCACCTAGTGCAG	3410 fluorescence intensity (a.u.)

Additional results follow:

Sequence	binding signal
TTTTGGACTGCTTAATGACAGGTTGCATGCACACTAATCCCGGAGTCACCTAGTGCAG	3700 fluorescence intensity (a.u.)
TTATTAGCAAGATACGCATCACATGATGTGTGATCACGAGCGGAGTCACCTAGTGCAG	23000 fluorescence intensity (a.u.)
TGAACAATGTTACAAATCACTTTATCGGATGAAGAAATGACGGAGTCACCTAGTGCAG	46400 fluorescence intensity (a.u.)
TTGCTGGCTAGACTGCCACGTAGGATCAAATCCACCGCAGCGGAGTCACCTAGTGCAG	14100 fluorescence intensity (a.u.)
GTATGCCATATGGAATCTCCATCAACCACGTGCATCAACTCGGAGTCACCTAGTGCAG	3800 fluorescence intensity (a.u.)
GCTGTTGTCGTCCTCGGCTGCCGAGCTGTCCTAGCTCGCCCGGAGTCACCTAGTGCAG	3390 fluorescence intensity (a.u.)
TCATCTAAGGTGCTGAACTTCATGCCTATTTGAGGTATCCCGGAGTCACCTAGTGCAG	9560 fluorescence intensity (a.u.)
ATCACAATAATATGCCACGTTATTGTACGGAGTGGATTGACGGAGTCACCTAGTGCAG	4580 fluorescence intensity (a.u.)
GTAAATTACGAGACGAATCTTTTGAGCATAATTACGCCATCGGAGTCACCTAGTGCAG	17600 fluorescence intensity (a.u.)
GCGGCGCATCCAGGAGGTTGAGTCGAGCACGCCACCGCTGCGGAGTCACCTAGTGCAG	3420 fluorescence intensity (a.u.)
ATAGTCAAAGTTCAAGGTGACTATGATTGGCAAATTTCCTCGGAGTCACCTAGTGCAG	3140 fluorescence intensity (a.u.)
GAACGCCGCCACCTACTCCCACTGCCACGTGGGCCCACATCGGAGTCACCTAGTGCAG	12500 fluorescence intensity (a.u.)
GCCGCTACAAACCGTGGGCAAGACGTGTCGCCATGGGAGCCGGAGTCACCTAGTGCAG	4560 fluorescence intensity (a.u.)
TAAGTTTCCACTCGACACGTCAAGTAAAACCGAGTACTATCGGAGTCACCTAGTGCAG	4740 fluorescence intensity (a.u.)
CCAAGTACCCAACCCAACGCCACGCCACGCACCCCGACCCCGGAGTCACCTAGTGCAG	5650 fluorescence intensity (a.u.)
CATCAACGGCCAGTAGCGCTCCACGTCCGACCAAAAGCAGCGGAGTCACCTAGTGCAG	6150 fluorescence intensity (a.u.)
ACACGCATGCAGCCGTGTAGACGTGTACACACATGCGGAACGGAGTCACCTAGTGCAG	4030 fluorescence intensity (a.u.)
GGTCTAGGTACTACTACACGTAGTCTTTGTAGGGACTAATCGGAGTCACCTAGTGCAG	3270 fluorescence intensity (a.u.)
GAACATCCAAATGTGCCCACAAGTTTCAGAGTTTCAGAAACGGAGTCACCTAGTGCAG	4130 fluorescence intensity (a.u.)
CACGCCCACTCCCCGCCCTCCACCGTGGCCGCCGTCACGTCGGAGTCACCTAGTGCAG	5400 fluorescence intensity (a.u.)
GTTGGTACTCCTGTCTGAATCATCAGTCTGAACTTGACCTCGGAGTCACCTAGTGCAG	3980 fluorescence intensity (a.u.)
CCTTCCTGCCATTGTAGTGGTCAAATCTTTCAGCGTGGGCCGGAGTCACCTAGTGCAG	3380 fluorescence intensity (a.u.)
GTGCTTATATATATATACACGCATGCACACTCAACTCTGACGGAGTCACCTAGTGCAG	4250 fluorescence intensity (a.u.)
TATTGATCCACGTGGCTACAGCCTACGGGCTGCATCAATCCGGAGTCACCTAGTGCAG	8570 fluorescence intensity (a.u.)
GTTCACGTGGCGGCTAGCAGAGCGCCCGCACGCGGGTGGGCGGAGTCACCTAGTGCAG	3740 fluorescence intensity (a.u.)
CATACTCCTTGTTCCTGAGCCATACCTCGCCACCTTGCTGCGGAGTCACCTAGTGCAG	3760 fluorescence intensity (a.u.)
GTAATGACAGGTGACACCTAAGGTCTGTGAAACATACTCCCGGAGTCACCTAGTGCAG	3880 fluorescence intensity (a.u.)
